Measured data: PubChem BioAssay AID602196 (INSERM, 2012)
The whole screen tested about 23,000 reagents; below is a part drawn at random. Of all reagents, 455 (2%) were called active. 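Active includes both protection and sensitisation; some change values fall well beyond the stated -50 to +50 range.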 A number with no mark means an inactive call. Further read-outs or replicates are left out here. Not given: the amount of reagent.

Screen: 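Modifiers of cisplatin sensitivity in A549 cells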
Cells: human A549 lung cancer cells
Reagent: siRNA pair against human genes
Duration: 48 h transfection before cisplatin; time from cisplatin to read-out not stated
Challenge: cisplatin at a dose killing half of control-siRNA cells; exact dose and duration not given
Detection: 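Shift in cisplatin death relative to control siRNA, from -50 (all cells die) to +50 (no cells die); siRNAs harmful on their own scored 0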
Reading the numbers: two-siRNA summed score (-2 to +2): higher = both siRNAs protect from cisplatin killing; -2 means both sensitise
Call rule: 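Each siRNA scores 0 if harmful alone by LDH or WST-1, otherwise +1 if it reduces and -1 if it increases cisplatin killing; a gene is active when both siRNAs agree (sum +2 or -2)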
Calls: active = both siRNAs shift cisplatin killing the same way; inactive = no consistent shift, or siRNA harmful alone

TFAP2B
- two-siRNA summed score (-2 to +2): 0

ERCC1
- two-siRNA summed score (-2 to +2): 0

NDP
- two-siRNA summed score (-2 to +2): -1

FLT1
- two-siRNA summed score (-2 to +2): 0

ZBED3
- two-siRNA summed score (-2 to +2): 0

OR52K2
- two-siRNA summed score (-2 to +2): 1

LOC441922
- two-siRNA summed score (-2 to +2): 1

AAAS
- two-siRNA summed score (-2 to +2): 0

A portion from the list above:
LOC441922
- two-siRNA summed score (-2 to +2): 1

AAAS
- two-siRNA summed score (-2 to +2): 0

More reagents:
CD247
- two-siRNA summed score (-2 to +2): -1

B3GNT7
- two-siRNA summed score (-2 to +2): 0

GNAT2
- two-siRNA summed score (-2 to +2): 0

IL25
- two-siRNA summed score (-2 to +2): -1
